# Results as given in patent US20220275059A1.
# Chains of the proteins cited; added tags and fusions are not shown. Residues count along the entry.
# UniProt Q6Q1S2, residues 16-1291: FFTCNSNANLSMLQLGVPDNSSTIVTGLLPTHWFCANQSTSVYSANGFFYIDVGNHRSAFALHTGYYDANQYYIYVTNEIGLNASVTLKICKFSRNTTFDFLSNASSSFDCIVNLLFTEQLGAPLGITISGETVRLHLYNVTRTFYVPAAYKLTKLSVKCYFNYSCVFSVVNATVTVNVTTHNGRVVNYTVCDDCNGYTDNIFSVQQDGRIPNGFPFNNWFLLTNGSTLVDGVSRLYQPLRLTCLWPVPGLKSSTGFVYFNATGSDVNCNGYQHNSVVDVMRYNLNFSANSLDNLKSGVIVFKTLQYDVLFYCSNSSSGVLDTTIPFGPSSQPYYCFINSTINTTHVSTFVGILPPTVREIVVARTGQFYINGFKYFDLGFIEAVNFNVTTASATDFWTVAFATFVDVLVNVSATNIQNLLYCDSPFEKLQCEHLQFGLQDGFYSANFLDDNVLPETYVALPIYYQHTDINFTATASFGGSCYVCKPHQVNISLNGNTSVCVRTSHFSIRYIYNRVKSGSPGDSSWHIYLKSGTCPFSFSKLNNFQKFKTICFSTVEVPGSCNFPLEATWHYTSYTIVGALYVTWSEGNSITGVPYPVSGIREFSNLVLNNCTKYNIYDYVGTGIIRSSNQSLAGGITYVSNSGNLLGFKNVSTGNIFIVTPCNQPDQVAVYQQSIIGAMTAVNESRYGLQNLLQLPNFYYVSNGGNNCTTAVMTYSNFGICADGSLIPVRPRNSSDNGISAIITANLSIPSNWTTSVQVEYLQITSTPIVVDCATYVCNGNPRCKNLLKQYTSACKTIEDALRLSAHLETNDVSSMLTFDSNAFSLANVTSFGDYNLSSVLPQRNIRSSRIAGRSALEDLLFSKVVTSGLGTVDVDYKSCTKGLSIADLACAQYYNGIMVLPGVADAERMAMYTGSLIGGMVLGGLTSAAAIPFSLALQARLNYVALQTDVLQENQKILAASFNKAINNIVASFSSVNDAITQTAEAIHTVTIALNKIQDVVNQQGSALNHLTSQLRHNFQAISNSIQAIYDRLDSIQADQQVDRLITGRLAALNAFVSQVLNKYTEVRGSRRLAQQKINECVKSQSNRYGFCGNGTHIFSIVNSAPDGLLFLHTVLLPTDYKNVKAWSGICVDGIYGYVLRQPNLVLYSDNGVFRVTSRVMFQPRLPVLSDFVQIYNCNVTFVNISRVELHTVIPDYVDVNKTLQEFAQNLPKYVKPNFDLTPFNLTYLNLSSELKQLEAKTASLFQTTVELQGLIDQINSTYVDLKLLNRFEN
# No constants are given. Whether binding was seen depends on the method and setting.
# B1: 1.5d6 (antibody, V domains shown)
# VH: QVQLVESGGGVVQPGRSLRLSCAASGFTFSRYGMHWVRQAPGKGLEWVAVIGYDGSNKYYADSVKGRFTISRDNSKNTLSLQMNSLRAEDTAVYYCARGGWNDDYYYGLDVWGQGTTVTVSS
# VL: DIVMTQSPLSLPVIPGEPASISCRSSQSLLHSNGYNYLDWYLQKPGQSPQLLIYLGSNRASGVPDRFSGSGSGTDFTLKISIVEAEDAGVYYCMQVLQTPWTFGQGTKVEIKR
# B2: 1.13a9 (antibody, V domains shown)
# VH: EVQLVESGGGLVQPGGSLRLSCAASGFTFSNYWMTWVRQAPGKGLEWVANIKEDGSEKYYVDSVKGRFTLSRDNAKNSLYLQMNSLRAEDTAVYYCAKEGALLWFGVLRPRAFDIWGQGTMVTVSS
# VL: DIVMTQSPLSLPVTPGEPASISCRSSQSLLHSNGYNYLDWYLQNPGQSPHLLIYLASNRASGVPDRFSGSGSGTDFTLKISRVEAADVGVYYCMQALQTPYTFGQGTKLEIKR
# Target: NL63 coronavirus spike protein (HCoV-NL63) (UniProt Q6Q1S2)
# Test: ELISA on NL63 Secto
row,Binder,binding
1,B1,no binding (tested: 25.00 (no unit printed))
2,B2,no binding (tested: 25.00 (no unit printed))
